Laboratory results as given in US6410696B1, “Cyclosporin immunoassay” (Dade Behring Marburg GmbH, priority 1990, dated 2002).
For at least one compound, name, drawing or mass did not settle the structure.

Test system: anti-CsA monoclonal antibodies
Experiment: EMIT Cyclosporin A Assay, cross-reactivity and interference
Assay type: binding, BALB/C mice

C=CC1=C(C)/C(=C/c2[nH]c(Cc3[nH]c(/C=C4\NC(=O)C(C)=C4C=C)c(C)c3CCC(=O)O)c(CCC(=O)O)c2C)NC1=O [Bilirubin, bilirubin]
clinically significant interference (in words) (30 mg/dL bilirubin or 1000 mg/dL triglycerides): No clinically significant interference
interference in the assay (in words) (summary of assay performance, high levels of bilirubin or triglycerides): did not interfere
